The assay has as its target T1, T. thermophilus Csm5 with a C-terminal HRV 3C protease site and His10 tag (T. thermophilus) (UniProt Q53W18).
T1 sequence: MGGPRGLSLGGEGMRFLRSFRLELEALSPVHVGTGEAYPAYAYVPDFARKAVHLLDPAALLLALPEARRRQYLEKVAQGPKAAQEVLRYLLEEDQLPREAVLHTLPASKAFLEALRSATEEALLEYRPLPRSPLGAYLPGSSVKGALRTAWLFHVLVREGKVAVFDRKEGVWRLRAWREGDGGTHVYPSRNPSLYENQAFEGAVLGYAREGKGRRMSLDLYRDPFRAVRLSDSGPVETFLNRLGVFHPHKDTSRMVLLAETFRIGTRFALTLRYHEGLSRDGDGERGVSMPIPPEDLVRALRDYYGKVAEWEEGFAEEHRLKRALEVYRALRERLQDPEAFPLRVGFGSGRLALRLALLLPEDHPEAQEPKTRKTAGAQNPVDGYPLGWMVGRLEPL
Description: affinity purification with mass spectrometry; five Csm subunits, Cas6A and crRNA 4.5 co-expressed in E. coli; complex isolated from the lysate on Ni-NTA by the His10 tag on Csm5, washed with 500 mM KCl, tag cleaved, Superose 6; subunits found by SDS-PAGE and LC-MS/MS of a trypsin digest.

These are yes or no findings as the source states them, for the method shown. In cells and extracts the contact can be indirect. These calls come from enrichment with a bait or labelling near it, and not all partners need be listed. Tags and fused reporters may be left off the sequences shown.

As for T. thermophilus Csm2, the binding result is given as “binds”.

B1: T. thermophilus Cas10/Csm1 (natural protein, UniProt Q53W19 1-805, looked up)
chain: MLGDGLSVALAGLLHDVGKLYSRARWGERDDQVPDRTHTAYTAHFVREHAGLFRGAGLDPDWLARTASRHHEGWRDRPQYRPETPEEWCVALADTYASKEREEGEGGGSPPEVPLSPPFRRLLLGGEEGREGGYSPVGAGGRVGLEAGGLYPEERPNVSKDVYKRLLERLEGRLEEMARFSLGKEALVLNLALALQETLSLVPSDTQSEPDVSLYDHLRLTAAIAHALWLFHGGSPSAQNLRQDGEKFLLVVGDMGGIQGHIYRIAGAEAGVGGIAKRLRARSLEVSLAAEAMALGLLWRLGLTSLNRILGAGGKFYLLLPNTEEARAALEGTREAWGRWALKRGGSLVPHLAWVAFRGQDFRDFAALLKRLHEALAREKLRPFAFLASTGGVLGAPLRPCAACGLEPARRDEPGSLCPDCEREAALGARLPRSDRVGFFLEEAPRPYLDFPGLKVGLGGPLEGAFHLFRARLDFAPWPDPSEAKPLLGHLPRVEHALKAKGWSLEAYRAWAEEEGLLEDEEPHPEKVLTFAELAALSEGAPYLGALMLDADRMGEAFATGFRREGRDLATPSRLAALSRTLEVFFTTEVLTLLEEPRRYRERLGWDDLEAQRKEARYPLLYSVYSGGDDLFLLGPWDALLDFALDLERLYRLFTRHPRLTLSGGFLLVPPSLPVPELARLLGEAEKRAKAEGRERLFLFGQAVPWETLRGLRAWAEGLRQDLRAERVSRAQVYRWLLLWRRFSPLEDPGERMRYKPLLAYALRRVRERDEEAWKRYLKLLDHQDPAWAYLPVWVQWALYRERRV
notes: Cas10/Csm1 of Thermus thermophilus (locus TTHB147), codon-optimized gene; also called TTHB147; source: E. coli BL21(λDE3), co-expressed with the other Csm subunits, Cas6A and crRNA 4.5; in lysate, and co-purified in the TthCsm complex (Ni-NTA, Superose 6)
Take B1: the binding result is “binds”.

The record behind these values is publication PMC5256923, “RNA and DNA Targeting by a Reconstituted Thermus thermophilus Type III-A CRISPR-Cas System” (PLoS ONE, 2017).
